PubChem BioAssay AID1259308, NCATS, 2017

Assay: 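Knock-downs that increase output of a recombinant reporter protein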 (primary screen)
System: human HEK293 embryonic kidney cells stably expressing firefly luciferase (HEK-CMV-Luc2-Hygro)
Knock-down reagent: single siRNA against human genes, 0.8 pmol siRNA per well
Timing: 72 h
Measured: 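Luciferase light (ONE-Glo) measured on one replicate plate set and viability (CellTiter-Glo) on the other, scaled to a negative control siRNA, with robust z-scores and luciferase per cell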
Direction: total luciferase, z-score: higher = more reporter protein produced
Rule for the call: 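An siRNA counts as active if its total luciferase robust z-score exceeds 3; genes with two or more such siRNAs out of three were retested with fresh siRNAs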
Meaning of the calls: active = raised luciferase; inactive = no rise
The whole screen tested about 59,000 reagents; shown is an unselected part. About 1,510 of all reagents (2.6%) count as active. 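Calls use total luciferase alone and ignore viability, so some active siRNAs may act by altering cell number.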 Unmarked entries are inactive. Reagents against one gene are numbered here. Further read-outs or replicates are left out here.

total luciferase, z-score, by gene and reagent
LOC651337: #1 -1.71; #2 0.517; #3 1.45
IDH1: #1 -1.19; #2 1.17; #3 0.315
NANOS1: #1 -0.0362; #2 0.44; #3 1.04
SPCS1: #1 -1.77; #2 -0.761; #3 0.654
ICA1L: #1 4.7 (active); #2 3.61 (active); #3 1.01
MRO: #1 0.101; #2 -0.669; #3 1.43
MAP3K20: #1 0.2; #2 -0.898; #3 -1.57
GPR78: #1 0.0877; #2 -0.645; #3 0.208
SIPA1: #1 1.68; #2 -0.447; #3 -0.905
OR2M5: #1 0.476; #2 0.0583; #3 0.307
PAFAH1B2: #1 -0.981; #2 -0.208; #3 -0.289
PRSS45P: #1 1.91; #2 -0.963; #3 -0.629
MAGEB6: #1 -0.0381; #2 0.519; #3 -0.000347
DDX11: #1 0.193; #2 -0.0491; #3 0.799
MEGF8: #1 -0.241; #2 -1.01; #3 -0.13
CACNA2D1: #1 -0.366; #2 -0.609; #3 -0.534
KLHDC9: #1 0.9; #2 -0.0379; #3 0.428
CSGALNACT1: #1 -0.821; #2 -0.962; #3 1.54
TAF11L1: #1 0.671; #2 0.236; #3 1.39

Records above whose target name starts with K or k:
total luciferase, z-score, by gene and reagent
KLHDC9: #1 0.9; #2 -0.0379; #3 0.428
